Experimental data: the supplement of paper PMC4604168 (melanoma cell lines)
The list shows a part of the results. Many values rest on one well or one pass, so single values are uncertain.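 The apoptosis fraction was the count of cleaved-PARP antibody-stained nuclei relative to all DNA-stained nuclei, imaged in 1,536-well plates. Screening doses were set so most cells survived, and baseline and induced cleaved-PARP levels vary greatly across cell lines.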

Each compound was assayed on MEL-HO (assay: cleaved PARP positive nuclei fraction relative to DMSO control; melanoma cells; higher = more apoptosis). Conditions: library dose: low library concentration; 72 h.

SMILES | cleaved PARP positive nuclei fraction
Cn1c(=O)n(-c2ccc(C(C)(C)C#N)cc2)c2c3cc(-c4cnc5ccccc5c4)ccc3ncc21 + Cn1cncc1[C@@](N)(c1ccc(Cl)cc1)c1ccc2c(c1)c(-c1cccc(Cl)c1)cc(=O)n2C [tipifarnib] (first compound 0.004 µM, partner dose 0.01 µM) | 119%
C[C@@H](Oc1cc(-c2cnn(C3CCNCC3)c2)cnc1N)c1c(Cl)ccc(F)c1Cl [Crizotinib] + CN(NC(=O)CC(=O)NN(C)C(=S)c1ccccc1)C(=S)c1ccccc1 [STA4783] (first compound 0.2 µM, partner dose 0.006 µM) | 312%
CC(C)C[C@H](NC(=O)[C@H](Cc1ccccc1)NC(=O)c1cnccn1)B(O)O [Bortezomib] + COc1cc2c(Oc3ccc4[nH]c(C)cc4c3F)ncnc2cc1OCCCN1CCCC1 [cediranib] (first compound 0.001 µM, partner dose 0.4 µM) | 26%
Cc1cc(Nc2cc(N3CCN(C)CC3)nc(/C=C/c3ccccc3)n2)n[nH]1 + Cc1cc(N2CCOCC2)cc2[nH]c(-c3c(NC[C@@H](O)c4cccc(Cl)c4)cc[nH]c3=O)nc12 [BMS536924] (first compound 0.04 µM, partner dose 0.2 µM) | 97.5%
C[C@@H](Oc1cc(-c2cnn(C3CCNCC3)c2)cnc1N)c1c(Cl)ccc(F)c1Cl [Crizotinib] + CC1(C)NC(=O)N(c2ccc([N+](=O)[O-])c(C(F)(F)F)c2)C1=O [nilutamide] (first compound 0.2 µM, partner dose 1 µM) | 116%
Cn1c(=O)n(-c2ccc(C(C)(C)C#N)cc2)c2c3cc(-c4cnc5ccccc5c4)ccc3ncc21 + NC(=O)Nc1cc(-c2cccc(F)c2)sc1C(=O)N[C@H]1CCCNC1 [AZD7762] (first compound 0.004 µM, partner dose 0.02 µM) | 68.7%
CC(C)C[C@H](NC(=O)[C@H](Cc1ccccc1)NC(=O)c1cnccn1)B(O)O [Bortezomib] + O=C(O)c1ccc(-c2c[nH]c3ncc(-c4ccccc4)cc23)cc1C1CCCC1 [GSK650394] (first compound 0.001 µM, partner dose 0.16 µM) | 75.9%
C[C@@H](Oc1cc(-c2cnn(C3CCNCC3)c2)cnc1N)c1c(Cl)ccc(F)c1Cl [Crizotinib] + C[C@@H]1CCN(C(=O)CC#N)C[C@@H]1N(C)c1ncnc2[nH]ccc12 [CP690550] (first compound 0.2 µM, partner dose 1 µM) | 249%
CC(C)C[C@H](NC(=O)[C@H](Cc1ccccc1)NC(=O)c1cnccn1)B(O)O [Bortezomib] + Cc1cc(N2CCOCC2)cc2[nH]c(-c3c(NC[C@@H](O)c4cccc(Cl)c4)cc[nH]c3=O)nc12 [BMS536924] (first compound 0.001 µM, partner dose 0.2 µM) | 139%
Nc1ccn([C@@H]2O[C@H](CO)[C@@H](O)C2(F)F)c(=O)n1 [gemcitabine] + CC(C)(C)c1cnc(CSc2cnc(NC(=O)C3CCNCC3)s2)o1 [SNS-032] (first compound 0.0004 µM, partner dose 0.01 µM) | 185%
CCCS(=O)(=O)Nc1ccc(F)c(C(=O)c2c[nH]c3ncc(Cl)cc23)c1F + C=CCn1c(=O)c2cnc(Nc3ccc(N4CCN(C)CC4)cc3)nc2n1-c1cccc(C(C)(C)O)n1 [MK1775] (first compound 0.08 µM, partner dose 0.02 µM) | 23.9%
Nc1ccn([C@@H]2O[C@H](CO)[C@@H](O)C2(F)F)c(=O)n1 [gemcitabine] + CC1(C)NC(=O)N(c2ccc([N+](=O)[O-])c(C(F)(F)F)c2)C1=O [nilutamide] (first compound 0.0004 µM, partner dose 1 µM) | 311%
CC(C)C[C@H](NC(=O)[C@H](Cc1ccccc1)NC(=O)c1cnccn1)B(O)O [Bortezomib] + Cc1ccc(NC(=O)c2cccc(N(C)C)c2)cc1NC(=O)c1ccc(O)cc1 [ZM336372] (first compound 0.001 µM, partner dose 2 µM) | 265%
CCCS(=O)(=O)Nc1ccc(F)c(C(=O)c2c[nH]c3ncc(Cl)cc23)c1F + CN(NC(=O)CC(=O)NN(C)C(=S)c1ccccc1)C(=S)c1ccccc1 [STA4783] (first compound 0.08 µM, partner dose 0.006 µM) | 91.3%
O=C(O)[C@@H]1[O][Sb](=[O])([O][Sb]2(=[O])[O][C@H]([C@H](O)CO)[C@H](O)[C@H](C(=O)O)[O]2)[O][C@H]([C@H](O)CO)[C@@H]1O (some centres not stated) [stibogluconate] + C[C@@H]1CCN(C(=O)CC#N)C[C@@H]1N(C)c1ncnc2[nH]ccc12 [CP690550] (first compound 2 µM, partner dose 1 µM) | 30.2%
C=C(c1ccc(C(=O)O)cc1)c1cc2c(cc1C)C(C)(C)CCC2(C)C [Bexarotene] + Cc1ccc(NC(=O)c2cccc(N(C)C)c2)cc1NC(=O)c1ccc(O)cc1 [ZM336372] (first compound 2 µM, partner dose 2 µM) | 173%
Cc1cc(Nc2cc(N3CCN(C)CC3)nc(/C=C/c3ccccc3)n2)n[nH]1 + CO[C@@H]1[C@H](N(C)C(=O)c2ccccc2)C[C@H]2O[C@]1(C)n1c3ccccc3c3c4c(c5c6ccccc6n2c5c31)C(=O)NC4 [Midostaurin] (first compound 0.04 µM, partner dose 0.08 µM) | 61.8%

Copied from the list:
Entry for C[C@@H](Oc1cc(-c2cnn(C3CCNCC3)c2)cnc1N)c1c(Cl)ccc(F)c1Cl [Crizotinib] + C[C@@H]1CCN(C(=O)CC#N)C[C@@H]1N(C)c1ncnc2[nH]ccc12 [CP690550] (first compound 0.2 µM, partner dose 1 µM) under cleaved PARP positive nuclei fraction: 249%
Entry for CCCS(=O)(=O)Nc1ccc(F)c(C(=O)c2c[nH]c3ncc(Cl)cc23)c1F + CN(NC(=O)CC(=O)NN(C)C(=S)c1ccccc1)C(=S)c1ccccc1 [STA4783] (first compound 0.08 µM, partner dose 0.006 µM) under cleaved PARP positive nuclei fraction: 91.3%
